PubChem BioAssay AID1159579 | Peter MacCallum Cancer Centre, 2015

- Aim: 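Follow-up screen seeking modulators of motility in lymphatic endothelial cells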 (follow-up of hits)
- Cells: human dermal lymphatic endothelial cells
- Reagent: single siRNA against human genes, 25 nM
- Measured: 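High content images of wound closure area and cell nuclei counts, each the average of two wells, expressed against mock transfection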
- Scale: migration relative to mock: higher = more migration into the scratch; mean nuclei count: higher = more cells remaining
- Active means: 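a ratio of at most 0.6 or at least 1.3 marks altered migration and an active call; a mean nuclei count under 3300 forces an inactive call regardless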
- Meaning of the calls: active = migration changed (impaired or accelerated); inactive = no migration change, or too few cells
Here is one part, drawn at random, of about 2,000 reagents. 549 of all reagents (27%) were called active. 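Some migration ratios are negative; siRNAs with too few cells are inactive whatever their migration ratio.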 Entries without a mark were called inactive. The numbers tell different reagents against one gene apart. Not all columns of the deposit are shown. Not given: the time to read-out.

The first 5 records, ahead of the listing:
target | reagent | migration relative to mock | mean nuclei count
AKAP11 (A-kinase anchoring protein 11) | 1 | -0.2 (active) | 3748
AKAP11 (A-kinase anchoring protein 11) | 2 | 0.69 | 6294
AKAP11 (A-kinase anchoring protein 11) | 3 | 1.23 | 7666
AKAP11 (A-kinase anchoring protein 11) | 4 | 0.76 | 5507
CT47A4 (cancer/testis antigen family 47 member A4) | 1 | 0.94 | 6708

Main list, from the start:
target | reagent | migration relative to mock | mean nuclei count
AKAP11 (A-kinase anchoring protein 11) | 1 | -0.2 (active) | 3748
AKAP11 (A-kinase anchoring protein 11) | 2 | 0.69 | 6294
AKAP11 (A-kinase anchoring protein 11) | 3 | 1.23 | 7666
AKAP11 (A-kinase anchoring protein 11) | 4 | 0.76 | 5507
CT47A4 (cancer/testis antigen family 47 member A4) | 1 | 0.94 | 6708
CT47A4 (cancer/testis antigen family 47 member A4) | 2 | 0.63 | 5791
CT47A4 (cancer/testis antigen family 47 member A4) | 3 | 0.62 | 5493
CT47A4 (cancer/testis antigen family 47 member A4) | 4 | 0.92 | 5652
LSR (lipolysis stimulated lipoprotein receptor) | 1 | 0.26 (active) | 5458
LSR (lipolysis stimulated lipoprotein receptor) | 2 | 0.72 | 5800
LSR (lipolysis stimulated lipoprotein receptor) | 3 | 0.63 | 5091
LSR (lipolysis stimulated lipoprotein receptor) | 4 | 0.79 | 5944
TMEM255A (transmembrane protein 255A) | 1 | 0.73 | 5576
TMEM255A (transmembrane protein 255A) | 2 | 0.61 | 4970
TMEM255A (transmembrane protein 255A) | 3 | 0.95 | 4706
TMEM255A (transmembrane protein 255A) | 4 | 0.66 | 4697
EPHA7 (EPH receptor A7) | 1 | 0.58 (active) | 6944
EPHA7 (EPH receptor A7) | 2 | 0.82 | 6276
EPHA7 (EPH receptor A7) | 3 | -0.66 | 1137
EPHA7 (EPH receptor A7) | 4 | 0.69 | 5582
STK11IP (serine/threonine kinase 11 interacting protein) | 1 | 0.46 (active) | 3554
STK11IP (serine/threonine kinase 11 interacting protein) | 2 | 0.88 | 4490
STK11IP (serine/threonine kinase 11 interacting protein) | 3 | 1.06 | 4196
STK11IP (serine/threonine kinase 11 interacting protein) | 4 | 0.88 | 4710
KRT80 (keratin 80) | 1 | 0.58 (active) | 6076
KRT80 (keratin 80) | 2 | 0.6 (active) | 4346
KRT80 (keratin 80) | 3 | 0.88 | 6826
KRT80 (keratin 80) | 4 | 0.3 (active) | 4837
LIMK1 (LIM domain kinase 1) | 1 | 1.06 | 5496
LIMK1 (LIM domain kinase 1) | 2 | 0.02 (active) | 3868
LIMK1 (LIM domain kinase 1) | 3 | 0.96 | 5784
LIMK1 (LIM domain kinase 1) | 4 | 0.6 (active) | 5562
HLX (H2.0 like homeobox) | 1 | -0.84 | 2470
HLX (H2.0 like homeobox) | 2 | 0.82 | 4268
HLX (H2.0 like homeobox) | 3 | 0.32 (active) | 5730
HLX (H2.0 like homeobox) | 4 | 0.68 | 5461
CDK13 (cyclin dependent kinase 13) | 1 | 0.68 | 5296
CDK13 (cyclin dependent kinase 13) | 2 | 0.66 | 5242
CDK13 (cyclin dependent kinase 13) | 3 | 1.16 | 5796
CDK13 (cyclin dependent kinase 13) | 4 | 0.88 | 5560
TCF19 (transcription factor 19) | 1 | 1.14 | 5021
TCF19 (transcription factor 19) | 2 | 0.98 | 5832
TCF19 (transcription factor 19) | 3 | 0.64 | 4798
TCF19 (transcription factor 19) | 4 | 0.5 (active) | 4830
IL1B (interleukin 1 beta) | 1 | 0.8 | 7000
IL1B (interleukin 1 beta) | 2 | 0.46 (active) | 4848
IL1B (interleukin 1 beta) | 3 | 0.58 (active) | 4634
IL1B (interleukin 1 beta) | 4 | 0.21 (active) | 4949
